{"source": "patent US7687473B2", "about": "“5-amino-4-imidazolecarboxamide riboside and its nucleobase as potentiators of antifolate transport and metabolism” (Health Research, Inc., priority 2005, dated 2010)", "test_system": "CCRF-CEM cells", "assay": "Effect of protein kinase inhibitors on [3H]MTX uptake", "format": "cell-based", "conditions": "Homo sapiens, 30 min preincubation, HEPES-buffered salts solution", "description": "To determine whether protein phosphorylation is involved in the mechanism of Z potentiation, we began studies with a series of protein kinase (PK) inhibitors (PKI).", "note": "Read-outs that look alike come from different tables or passages of the source."}
{"compound": "CN[C@@H]1C[C@H]2O[C@@](C)([C@@H]1OC)n1c3ccccc3c3c4c(c5c6ccccc6n2c5c31)C(=O)NC4", "note": "[Staurosporine, staurosporine]", "values": [{"measurement": "inhibition at 10 µM", "setting": "read-out: Inhibition of 30 min accumulation +TMTX", "value": 15, "unit": "%"}, {"measurement": "inhibition at 10 µM", "setting": "read-out: Inhibition of 30 min accumulation +TMTX+Z", "value": 8, "unit": "%"}]}
